Experimental data taken from PubChem BioAssay AID1487 (National Center for Advancing Translational Sciences (NCATS), 2009).
Some of the results follow. Further columns of the screen follow, without active or inactive calls. Most of these compounds were active or inconclusive in the main read-out, so they are no random draw. Potencies come from curve fits of mixed quality, noted in brackets.

Test: qHTS Assay for Modulators of Lamin A Splicing
Details: HeLa LMNA splicing GFP/RFP minigene ratio, 48 h
How it was run: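 Read-out is the ratio of GFP to DsRed2 object intensity, acquired by 488 nm laser-scanning cytometry on HeLa lamin A-EGFP minigene reporter cells. Compound incubation 48 hrs at 37 °C in Opti-MEM with 2% FBS; DMSO 0.5% final.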

[1] = measured here: GFP splicing reporter channel
[2] = measured here: RFP viability control channel

Q: With `Cc1cc(NC(=O)CSc2nnc(-c3ccccc3)o2)no1` as the compound, how does the AC50 [1] read?
A: Its AC50 is 14.1 µM [rising, partial curve].

Q: And the AC50 [2]?
A: Its AC50 is 15.8 µM [rising, partial curve].

Q: For `Cc1ccc2cc3c(N)c4c(C)ccc(C)c4nc3nc2c1`, which AC50 [1] is on record?
A: The AC50 was 35.5 µM [falling, single point].

Q: Which AC50 [2] does the source give for `C=CCSc1nc(N)c2c(C)c(C)sc2n1` here?
A: Its AC50 is 35.5 µM [rising, single point].

Q: Which AC50 [1] does the source give for `COc1ccccc1CN1C(=O)CN(C2CCCC2)C(=O)C1c1ccc(F)cc1` (configuration not stated) here?
A: The AC50 was 12.6 µM [rising, single point].

Q: And the AC50 [2]?
A: The AC50 was 11.2 µM [rising, single point].

Q: For `Cc1ccc2onc(CC(=O)N3CCN(c4cccc(Cl)c4)CC3)c2c1`, which AC50 [1] is on record?
A: The AC50 was 12.6 µM [falling, partial curve, poor fit].

Q: For `Cc1cc(F)ccc1NC(=O)Cn1cc(S(=O)(=O)NC(C)C)c(S(=O)(=O)NC(C)C)c1`, which AC50 [1] is on record?
A: Its AC50 is 0.00282 µM [rising, full curve, poor fit].

Q: Which AC50 [2] does the source give for `COc1cc2c(cc1NCc1ccc3c(c1)OCO3)oc1ccccc12` here?
A: Its AC50 is 10 µM [rising, single point].

Q: With `CN(C)CCCO[C@H]1[C@@H]2OC(C)(C)O[C@@H]2O[C@@H]1[C@H](O)CO` as the compound, how does the AC50 [1] read?
A: Its AC50 is 11.2 µM [falling, single point].

Q: What about the AC50 [2] of the same compound?
A: The AC50 was 7.94 µM [falling, single point].

Q: For `C=C(C)[C@@H]1CC=C(CN2CCC(N3CCC(C(=O)N4CCCC4)CC3)CC2)CC1`, which AC50 [1] is on record?
A: Its AC50 is 31.6 µM [falling, single point].

Q: Which results are given for `Cc1cc(SC#N)cc(C)c1NC(=O)CCl`?
A: AC50 [1]: 35.5 µM [falling, single point]; AC50 [2]: 35.5 µM [falling, single point]

Q: With `Cc1ccc(S(=O)(=O)N(CC(=O)N2CCc3ccccc3C2)c2cccc(Cl)c2)cc1` as the compound, how does the AC50 [1] read?
A: The AC50 was 0.0891 µM [rising, full curve, poor fit].

Q: Which AC50 [2] does the source give for `COc1ccc(NC(=O)CNC(=O)Cn2c(C)cc3ccccc3c2=O)c(OC)c1` here?
A: The AC50 was 0.891 µM [falling, full curve, poor fit].

Q: With `Cc1cc(C(=O)NNC(=S)NCc2ccccc2)cs1` as the compound, how does the AC50 [2] read?
A: Its AC50 is 12.6 µM [rising, single point].

Q: Which AC50 [2] does the source give for `COc1ccc(C2NCCc3c2[nH]c2ccccc32)cc1CSc1nc2ccccc2s1` (configuration not stated) here?
A: The AC50 was 22.4 µM [rising, single point].

Q: Which results are given for `Cc1cccc2cc(CN(CC3CCCO3)C(=O)c3ccco3)c3nnnn3c12` (configuration not stated)?
A: AC50 [1]: 7.08 µM [falling, full curve, poor fit]; AC50 [2]: 8.91 µM [falling, partial curve]

Q: Which AC50 [1] does the source give for `CCOc1ccc(C(=O)Nc2nnc(SCc3cc(=O)n4ccccc4n3)s2)cc1` here?
A: The AC50 was 0.0224 µM [rising, full curve, poor fit].

Q: Which AC50 [2] does the source give for `O=C(CN1C2=NCCCN2c2ccccc21)c1ccc(Br)s1` here?
A: Its AC50 is 20 µM [rising, single point].

Q: Which AC50 [1] does the source give for `N#CC(C#N)=C(Nc1ccc(F)cc1)SCc1cccc(Br)c1` here?
A: Its AC50 is 5.01 µM [rising, full curve].

Q: And the AC50 [2]?
A: Its AC50 is 6.31 µM [rising, full curve].

Q: Which AC50 [1] does the source give for `O=C(Nn1c(-c2ccc(Br)cc2)nc2ccccc2c1=O)c1cccnc1` here?
A: Its AC50 is 1.26 µM [rising, single point].

Q: What about the AC50 [2] of the same compound?
A: Its AC50 is 1.26 µM [rising, single point].

Q: With `CC(NC(=S)NCCc1ccccc1)C(c1cccs1)N1CCN(Cc2ccccc2)CC1` (configuration not stated) as the compound, how does the AC50 [2] read?
A: The AC50 was 12.6 µM [rising, partial curve].

Q: Which results are given for `CCc1nnc(NC(=O)CSc2nc3c([nH]c4ccccc43)c(=O)n2-c2ccc(Cl)cc2)s1`?
A: AC50 [1]: 6.31 µM [falling, partial curve, poor fit]; AC50 [2]: 15.8 µM [falling, partial curve]

Q: With `CCOC(=O)C1=C(CSc2nc3ccccc3s2)NC(=O)NC1c1ccc(OC)cc1` (configuration not stated) as the compound, how does the AC50 [1] read?
A: The AC50 was 10 µM [falling, partial curve].

Q: What about the AC50 [2] of the same compound?
A: The AC50 was 22.4 µM [falling, single point].

Q: Which AC50 [2] does the source give for `C=CCN(c1ccccc1)S(=O)(=O)c1ccc(Cl)c(C(=O)OCC(=O)c2[nH]c(C)c(C(C)=O)c2C)c1` here?
A: Its AC50 is 15.8 µM [rising, single point].

Q: With `CC(/C=C1\SC(=S)N(NC(=O)c2ccccc2C)C1=O)=C\c1ccccc1` as the compound, how does the AC50 [2] read?
A: The AC50 was 31.6 µM [rising, single point].

Q: For `COc1ccc(CC(=O)Nc2nc3c(s2)CCCC3)cc1`, which AC50 [1] is on record?
A: Its AC50 is 3.98 µM [falling, full curve, poor fit].

Q: And the AC50 [2]?
A: The AC50 was 31.6 µM [rising, single point].

Q: With `CS(=O)(=O)N1CCN(c2ncnc3c2cnn3-c2ccccc2)CC1` as the compound, how does the AC50 [2] read?
A: Its AC50 is 3.98 µM [falling, single point].

Q: With `NC1=NC(=Nc2ccccc2)c2ccccc21` as the compound, how does the AC50 [2] read?
A: Its AC50 is 25.1 µM [rising, single point].

Q: Which AC50 [2] does the source give for `COc1ccc(NS(=O)(=O)c2ccc(N3CCCC3)c(NC(=S)Nc3cccc(S(=O)(=O)N(C)C)c3)c2)cc1` here?
A: Its AC50 is 3.98 µM [rising, partial curve].

Q: For `CC(=O)c1cccc(NC(=O)c2ccc3nc(Cc4ccccc4)oc3c2)c1`, which AC50 [2] is on record?
A: Its AC50 is 35.5 µM [rising, single point].

Q: With `c1ccc(CN2CCN(c3nc(-c4ccccc4)nc(-n4ccnc4)n3)CC2)cc1` as the compound, how does the AC50 [1] read?
A: Its AC50 is 35.5 µM [rising, single point].

Q: What about the AC50 [2] of the same compound?
A: The AC50 was 31.6 µM [rising, single point].

Q: For `COc1ccc(-c2c(C)c3ccc(O)c(CN4CCOCC4)c3oc2=O)cc1OC`, which AC50 [1] is on record?
A: The AC50 was 0.562 µM [rising, single point].

Q: For `COc1cc(S(=O)(=O)N(Cc2ccc(C)cc2)Cc2ccco2)ccc1-n1cnnn1`, which AC50 [2] is on record?
A: Its AC50 is 22.4 µM [rising, single point].

Q: For `Cc1cc(C)c2c(c1)c(C)cc1nnc(SCC(=O)c3ccccc3)n12`, which AC50 [2] is on record?
A: The AC50 was 0.2 µM [falling, full curve, poor fit].

Q: With `O=C(COc1ccccc1[N+](=O)[O-])N/N=C/c1cccs1` as the compound, how does the AC50 [2] read?
A: Its AC50 is 12.6 µM [rising, partial curve].

Q: With `CCCCOC(=S)NC(=O)c1sc2ccccc2c1Cl` as the compound, how does the AC50 [1] read?
A: The AC50 was 35.5 µM [rising, single point].

Q: Which AC50 [2] does the source give for `CC(C)c1[nH]nc2c1C(C1C=CCCC1)C(C#N)=C(N)O2` (configuration not stated) here?
A: Its AC50 is 35.5 µM [falling, single point].
